{"sequences": {"note": "Amino acid sequences for entries named in this document (tags omitted).", "UniProt Q9DAK2": "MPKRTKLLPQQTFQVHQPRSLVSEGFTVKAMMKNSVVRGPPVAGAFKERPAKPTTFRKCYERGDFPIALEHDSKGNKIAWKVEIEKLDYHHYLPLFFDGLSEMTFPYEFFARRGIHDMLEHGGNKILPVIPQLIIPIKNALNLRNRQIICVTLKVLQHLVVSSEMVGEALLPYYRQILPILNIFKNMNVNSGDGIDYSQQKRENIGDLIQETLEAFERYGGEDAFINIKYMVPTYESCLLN"}, "source": "paper PMC4698733", "binders": {"B1": {"name": "MEIG1 wild type, co-expressed with PACRG from PACRG/MEIG1/pCDFDuet-1 (protein, UniProt Q61845 1-88)", "chain": "MATSDVKPKSISRAKKWSEEIENLYRFQQAGYRDEIEYKQVKQVAMVDRWPETGYVKKLQRRDNTFFYYNKERECEDKEVHKVKVYVY"}, "B2": {"name": "Mouse meiosis expressed gene 1 protein (MEIG1), wild type, purified (protein, UniProt Q61845 1-88)", "chain": "B1 chain"}, "B3": {"name": "MEIG1 W50A, purified (protein, UniProt Q61845 1-88)", "chain": "B1 chain with W50A"}, "B4": {"name": "MEIG1 K57E, purified (protein, UniProt Q61845 1-88)", "chain": "B1 chain with K57E"}, "B5": {"name": "MEIG1 F66A, purified (protein, UniProt Q61845 1-88)", "chain": "B1 chain with F66A"}, "B6": {"name": "MEIG1 Y68A, purified (protein, UniProt Q61845 1-88)", "chain": "B1 chain with Y68A"}}, "key": {"[1]": {"biological_target": "PACRG with hexahistidine tag, co-expressed with MEIG1 from PACRG/MEIG1/pCDFDuet-1 (mouse) (UniProt Q9DAK2)", "experiment": "SEC; His-tagged PACRG and MEIG1 co-expressed in E. coli Rosetta II (DE3) from the dual plasmid; Nickel affinity, then Superdex 75 26/60 gel filtration twice; fractions analysed by Western blot"}, "[2]": {"biological_target": "Mouse meiosis expressed gene 1 protein (MEIG1), wild type, purified (mouse) (UniProt Q61845)", "experiment": "NMR linewidths (2D 15N-HSQC); purified labelled MEIG1, 0.5-1.0 mM, 10 mM NaPO4 pH 6.5, 1 mM dithiothreitol; narrow, sharp and well dispersed resonances; both purified"}, "[3]": {"biological_target": "Mouse meiosis expressed gene 1 protein (MEIG1), wild type, purified (mouse) (UniProt Q61845)", "experiment": "SEC; purified MEIG1 on a Superdex 75 26/60 gel filtration column (GE Healthcare); single peak at 233 mL, apparent molecular weight ~9 kDa against expected 11 kDa; both purified"}, "[4]": {"biological_target": "MEIG1 W50A, purified (mouse) (UniProt Q61845)", "experiment": "SEC; mutant MEIG1 proteins that affect binding to PACRG; elution profiles compared with wild type (Supplemental Fig. 3C); both purified"}, "[5]": {"biological_target": "MEIG1 K57E, purified (mouse) (UniProt Q61845)", "experiment": "SEC; mutant MEIG1 proteins that affect binding to PACRG; elution profiles compared with wild type (Supplemental Fig. 3C); both purified"}, "[6]": {"biological_target": "MEIG1 F66A, purified (mouse) (UniProt Q61845)", "experiment": "SEC; mutant MEIG1 proteins that affect binding to PACRG; elution profiles compared with wild type (Supplemental Fig. 3C); both purified"}, "[7]": {"biological_target": "MEIG1 Y68A, purified (mouse) (UniProt Q61845)", "experiment": "SEC; mutant MEIG1 proteins that affect binding to PACRG; elution profiles compared with wild type (Supplemental Fig. 3C); both purified"}}, "note": "Residue numbers refer to the chain shown, from its start. In names and notes the source's numbering stands. These are yes or no findings as the source states them, for the method shown. Some results given as binding are weak or reduced against the parent protein; the word gives no strength.", "data": [{"binder": "B1", "values": [{"measurement": "binding", "setting": "[1]", "result": "binds"}]}, {"binder": "B2", "values": [{"measurement": "binding", "setting": "[2]", "result": "no binding (tested: 0.5–1.0 mM)"}, {"measurement": "binding", "setting": "[3]", "result": "no binding"}]}, {"binder": "B3", "values": [{"measurement": "binding", "setting": "[4]", "result": "no binding"}]}, {"binder": "B4", "values": [{"measurement": "binding", "setting": "[5]", "result": "no binding"}]}, {"binder": "B5", "values": [{"measurement": "binding", "setting": "[6]", "result": "no binding"}]}, {"binder": "B6", "values": [{"measurement": "binding", "setting": "[7]", "result": "no binding"}]}]}
